Results published in the supplement of paper PMC8728848.
Some of the results follow.

How the values were obtained:
Experiment in all cases: glycan array binding signal (z-score within array); higher = stronger binding
Conditions in all cases: glycan notation: IUPAC condensed, linker removed
[1] = target: Neu5Ac(a2-6)Gal(b1-4)GlcNAc(b1-2)Man(a1-3)[Man(a1-6)]Man(b1-4)GlcNAc(b1-4)GlcNAc
How it was run: (§1)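 Glycan array data came from 3228 arrays in the Consortium for Functional Glycomics database, and only arrays with an available protein sequence were kept. Glycan names were put into IUPAC-condensed notation, and columns mapping to the same glycan were averaged. The binding signal is a within-array Z-score, averaged across arrays of one protein sequence run at different concentrations or buffers and across linkers. A negative Z-score can be read as non-binding.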

[2] = target: Neu5Ac(a2-6)Gal(b1-4)GlcNAc(b1-2)Man(a1-3)[Neu5Ac(a2-3)Gal(b1-4)GlcNAc(b1-2)Man(a1-6)]Man(b1-4)GlcNAc(b1-4)GlcNAc
How it was run: as §1

[3] = target: Neu5Ac(a2-6)Gal(b1-4)GlcNAc(b1-2)Man(a1-3)[Neu5Ac(a2-6)Gal(b1-4)GlcNAc(b1-2)Man(a1-6)]Man(b1-4)GlcNAc(b1-4)GlcNAc
How it was run: as §1

[4] = target: Neu5Ac(a2-6)Gal(b1-4)GlcNAc(b1-2)Man(a1-3)[Neu5Ac(a2-6)Gal(b1-4)GlcNAc(b1-2)Man(a1-6)]Man(b1-4)GlcNAc(b1-4)[Fuc(a1-6)]GlcNAc
How it was run: as §1

[5] = target: Neu5Ac(a2-6)Gal(b1-4)GlcNAc(b1-2)Man(a1-6)Man(b1-4)GlcNAc(b1-4)GlcNAc
How it was run: as §1

[6] = target: Neu5Ac(a2-6)Gal(b1-4)GlcNAc(b1-2)Man(a1-6)[Gal(b1-4)GlcNAc(b1-2)Man(a1-3)]Man(b1-4)GlcNAc(b1-4)GlcNAc
How it was run: as §1

[7] = target: Neu5Ac(a2-6)Gal(b1-4)GlcNAc(b1-2)Man(a1-6)[GlcNAc(b1-2)Man(a1-3)]Man(b1-4)GlcNAc(b1-4)GlcNAc
How it was run: as §1

[8] = target: Neu5Ac(a2-6)Gal(b1-4)GlcNAc(b1-2)Man(a1-6)[Man(a1-3)]Man(b1-4)GlcNAc(b1-4)GlcNAc
How it was run: as §1

[9] = target: Neu5Ac(a2-6)Gal(b1-4)GlcNAc(b1-2)[Neu5Ac(a2-6)Gal(b1-4)GlcNAc(b1-4)]Man(a1-3)[GlcNAc(b1-4)][Neu5Ac(a2-6)Gal(b1-4)GlcNAc(b1-2)[Neu5Ac(a2-6)Gal(b1-4)GlcNAc(b1-6)]Man(a1-6)]Man(b1-4)GlcNAc(b1-4)GlcNAc
How it was run: as §1

[10] = target: Neu5Ac(a2-6)Gal(b1-4)GlcNAc(b1-2)[Neu5Ac(a2-6)Gal(b1-4)GlcNAc(b1-4)]Man(a1-3)[GlcNAc(b1-4)][Neu5Ac(a2-6)Gal(b1-4)GlcNAc(b1-4)Man(a1-6)]Man(b1-4)GlcNAc(b1-4)GlcNAc
How it was run: as §1

[11] = target: Neu5Ac(a2-6)Gal(b1-4)GlcNAc(b1-2)[Neu5Ac(a2-6)Gal(b1-4)GlcNAc(b1-6)]Man(a1-6)[Neu5Ac(a2-6)Gal(b1-4)GlcNAc(b1-2)Man(a1-3)][GlcNAc(b1-4)]Man(b1-4)GlcNAc(b1-4)GlcNAc
How it was run: as §1

[12] = target: Neu5Ac(a2-6)Gal(b1-4)GlcNAc(b1-3)Gal(b1-3)GlcNAc
How it was run: as §1

[13] = target: Neu5Ac(a2-6)Gal(b1-4)GlcNAc(b1-3)Gal(b1-4)GlcNAc
How it was run: as §1

[14] = target: Neu5Ac(a2-6)Gal(b1-4)GlcNAc(b1-3)Gal(b1-4)GlcNAc(b1-2)Man(a1-3)[Neu5Ac(a2-6)Gal(b1-4)GlcNAc(b1-3)Gal(b1-4)GlcNAc(b1-2)Man(a1-6)]GalNAc
How it was run: as §1

[15] = target: Neu5Ac(a2-6)Gal(b1-4)GlcNAc(b1-3)Gal(b1-4)GlcNAc(b1-3)Gal(b1-4)GlcNAc
How it was run: as §1

[16] = target: Neu5Ac(a2-6)Gal(b1-4)GlcNAc(b1-3)Gal(b1-4)GlcNAc(b1-3)Gal(b1-4)GlcNAc(b1-2)Man(a1-3)[Neu5Ac(a2-6)Gal(b1-4)GlcNAc(b1-3)Gal(b1-4)GlcNAc(b1-3)Gal(b1-4)GlcNAc(b1-2)Man(a1-6)]GalNAc
How it was run: as §1

[17] = target: Neu5Ac(a2-6)Gal(b1-4)GlcNAc(b1-3)Gal(b1-4)GlcNAc(b1-3)GalNAc
How it was run: as §1

[18] = target: Neu5Ac(a2-6)Gal(b1-4)GlcNAc(b1-3)Gal(b1-4)GlcNAc(b1-3)[Neu5Ac(a2-6)Gal(b1-4)GlcNAc(b1-3)Gal(b1-4)GlcNAc(b1-6)]GalNAc
How it was run: as §1

[19] = target: Neu5Ac(a2-6)Gal(b1-4)GlcNAc(b1-3)Gal(b1-4)GlcNAc(b1-6)[Gal(b1-3)]GalNAc
How it was run: as §1

[20] = target: Neu5Ac(a2-6)Gal(b1-4)GlcNAc(b1-3)Gal(b1-4)[Fuc(a1-3)]GlcNAc(b1-3)Gal(b1-4)[Fuc(a1-3)]GlcNAc
How it was run: as §1

[21] = target: Neu5Ac(a2-6)Gal(b1-4)GlcNAc(b1-3)GalNAc
How it was run: as §1

[22] = target: Neu5Ac(a2-6)Gal(b1-4)GlcNAc(b1-3)[Neu5Ac(a2-6)Gal(b1-4)GlcNAc(b1-6)]GalNAc
How it was run: as §1

[23] = target: Neu5Ac(a2-6)Gal(b1-4)GlcNAc(b1-6)GalNAc
How it was run: as §1

[24] = target: Neu5Ac(a2-6)Gal(b1-4)GlcNAc(b1-6)[Gal(b1-3)GlcNAc(b1-3)]Gal(b1-4)Glc
How it was run: as §1

[25] = target: Neu5Ac(a2-6)Gal(b1-4)GlcNAc(b1-6)[Gal(b1-3)]GalNAc
How it was run: as §1

[26] = target: Neu5Ac(a2-6)Gal(b1-4)GlcNAc6S
How it was run: as §1

Neu5Ac(a2-6)GalNAc = target: Neu5Ac(a2-6)GalNAc
How it was run: as §1

[27] = target: Neu5Ac(a2-6)GalNAc(b1-4)GlcNAc
How it was run: as §1

[28] = target: Neu5Ac(a2-6)GalNAc(b1-4)GlcNAc6S
How it was run: as §1

[29] = target: Neu5Ac(a2-6)GlcNAc(b1-4)GlcNAc
How it was run: as §1

B1: TAL6-6LysM (Trichoderma atroviride) (protein)
chain: AASKLGVPQPAQRDQVNCQLYAVQPNDNCIDISSKNNITYAQLLSWNPSLSSTCSNLASLNSSSICVSNPKGTFSISSNTVGATDIATTTAPVPSPTLDQTTSRCAKYYQVSDGDDCSHLTAQFAITLKDFIFLNSEVWQNCTNLELGYYYCVEPVGYISTYPGYLPTATTKPFNQTSATSLPYDGDPWARFSSNSSVIPIANGTRVDCYSYVYVKNLTENLFADCWNMASMYEITREELVLWNPSLGNDGSSGSNLSGAEASQVASSIAIPTTAPSSITTNLYTYPCTVAANISYCVALVSSTGALPTNTAPPGPHASGEISNCTAWFAPEAYDTCKSILDIFEMSFANFYKMNPSVGPDCSGLAVGTNYCVSTYPNGEDPNDDWDGDDSIPSISPTGIITPTPTQSGMVSNCNKFYDVHSNDGCSAIASSQHVDLSSLYKWNPAIKTDCSGLQASVYVCIGILTTSMSTTSKLPTTTSKPSTTSKPPTGITTPTPTQSGMVKNCNKFYDVHSGDGCSAIASSQKVNLSSFYLWNPAVKTDCSGLQASVFVCIGTLTTSMSTTTSKLPTTTSKPSTTSKPPTGIITPTPTQNGMVKNCNKFYDVHSGDGCSAIASSQKVNLSSFYLWNPAVKTDCSGLQASVFVCVGTATTTTAAGITTPTPTQSGMVSGCNKFYDVHAGDGCSAIASSQKIALSSLYKWNPAVKTDCSGLQASVYICIGVGNAAAARVTGAAASFLEQKLISEEDLNSAVDHHHHHH
- glycan array binding signal (z-score) [1]: -0.594
- glycan array binding signal (z-score) [2]: -0.013
- glycan array binding signal (z-score) [3]: 0.076
- glycan array binding signal (z-score) [4]: -0.891
- glycan array binding signal (z-score) [5]: 0.838
- glycan array binding signal (z-score) [6]: 0.106
- glycan array binding signal (z-score) [7]: -0.01
- glycan array binding signal (z-score) [8]: -1.41
- glycan array binding signal (z-score) [9]: 0.288
- glycan array binding signal (z-score) [10]: -0.829
- glycan array binding signal (z-score) [11]: 0.005
- glycan array binding signal (z-score) [12]: -1.1
- glycan array binding signal (z-score) [13]: 1.52
- glycan array binding signal (z-score) [14]: 1.37
- glycan array binding signal (z-score) [15]: 1.28
- glycan array binding signal (z-score) [16]: 1.62
- glycan array binding signal (z-score) [17]: -0.317
- glycan array binding signal (z-score) [18]: 0.003
- glycan array binding signal (z-score) [19]: -0.387
- glycan array binding signal (z-score) [20]: 2.13
- glycan array binding signal (z-score) [21]: -1.09
- glycan array binding signal (z-score) [22]: -0.108
- glycan array binding signal (z-score) [23]: -0.092
- glycan array binding signal (z-score) [24]: -1.03
- glycan array binding signal (z-score) [25]: -0.008
- glycan array binding signal (z-score) [26]: 0.283
- glycan array binding signal (z-score) (Neu5Ac(a2-6)GalNAc): -0.325
- glycan array binding signal (z-score) [27]: -0.721
- glycan array binding signal (z-score) [28]: 1.99
- glycan array binding signal (z-score) [29]: -0.9
